Laboratory results: PubChem BioAssay AID686937 (Drosophila RNAi Screening Center, 2013)
The screen tested about 23,000 reagents; below is an unselected part of those that have a named target and a result. 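Reduced-secretion tags in replicate 1 do not always agree with the z-scores; no criterion for assigning the tags was given.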 Reagents against one gene are numbered here. A plus sign joins genes that one reagent is predicted to hit. Not all columns of the deposit are shown. Reagent sequences are not shown. Not stated in the record: the amount of reagent.

Assay: 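Genes in the fly needed for secretion of protein constitutively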 (primary screen)
System: Drosophila S2 cells expressing secreted horseradish peroxidase
Knock-down reagent: long dsRNA against Drosophila genes
Time to read-out: about 5.5 days (5 days dsRNA, then 12 h reporter induction)
Challenge: reporter expression induced after 5 days of dsRNA, read 12 h later; inducer not stated
Detection: 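Chemiluminescent measurement of peroxidase in the medium 12 h after reporter induction, following 5 days of dsRNA, given as a z-score per plate; higher means more secretion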
Reading the numbers: z-score: higher = more reporter secreted into medium

z-score, replicate 1, by gene and reagent
futsch: #1 0.55; #2 0.28; #3 0.38; #4 0.4
Nepl13: #1 0.23
CG13721: #1 0.28
Drep1: #1 0.4
sunz: #1 0.28
Rpt4: #1 -1.2
Mapmodulin: #1 0.42
CG42703: #1 0.4
Flad1: #1 0.22
CG42542: #1 0.04; #2 -0.43
rudhira: #1 -2.23; #2 0.34
CG33722 + CG18749: #1 0.27; #2 0.32
Spn31A: #1 0.27
B52: #1 0.41
CG13907: #1 0.39
CG12420: #1 0.53
CG9826: #1 0.24
CG4238: #1 -0.2; #2 0.31
CG16998: #1 0.29
aly: #1 0.21; #2 0.23
Nnk: #1 0.18
CG9498: #1 0.39
cdi: #1 -0.05
CG4928: #1 0.28
Srp68: #1 -1.63
Mayo: #1 0.37
CG32829: #1 0.34; #2 -0.26
CG1986: #1 0.05
CG17687: #1 0.19
PsGEF: #1 0.27; #2 0.2; #3 0.41
CG13239: #1 0.24
CG11586: #1 0.32
GstE4: #1 0.19
CG14258: #1 0.38
AP-2mu: #1 0.32
Cyp12a5: #1 0.22
Tlk: #1 0.14; #2 0.3; #3 -2.18; #4 2.87; #5 -0.94; #6 -0.13
TwdlZ: #1 -0.02
sing: #1 0.34
orb2 + CG43783: #1 0; #2 0.34; #3 0.11
Surf4: #1 -0.11
CG4483: #1 0.79
Cyp4ac2: #1 0.11
CG42741: #1 0.12; #2 1.47
ALiX: #1 0.37
CG11672: #1 -0.19
CG10581: #1 0.4
Cda9: #1 -0.07
RabX5: #1 0.42
term: #1 -0.05
FucTB: #1 0.26
CG14491: #1 0.43
Tom40: #1 -0.15
Ac13E: #1 0.61
Hey: #1 -1.56
Dtd: #1 0.08
Hmr: #1 -0.13
flw: #1 0.07; #2 0.41
Ulp1: #1 0.06
Mhcl: #1 0.16; #2 0.17; #3 0.41
